Here are results for three molecules from publication PMC1609128.

Results are given in words; binding and its absence hold for the method and conditions named. Binding calls can cover weak binding; strength is not graded here. Tags and fused reporters may be left off the sequences shown. For some of these results: Binding seen in cells or lysates may run through a third protein.

One experiment addresses GST fusion histone H1. As to the kind of experiment: pull-down; bacterially produced GST histone fusion proteins on glutathione-sepharose beads reacted with lysates of transfected 293T cells; beads washed 4 times in lysis buffer; Western blot; only the target purified.
The next experiment deals with GST fusion histone H2A. The experiment is described as above.
Experiment [1] has as its target histone H1 (on the Farwestern blot of histones). As to the kind of experiment: far-Western, overlay or dot blot; Western blots with 1 μg and 0.25 μg histones reacted with lysates of transfected 293T cells expressing myc-tagged CTCFL; detected by α-Myc and α-CTCFL antibodies; only the target purified. (In general: In western blotting, separated proteins are transferred to a membrane and probed.)

B1: Myc-tagged CTCFL (full length) (protein, UniProt A2APF3 1-636)
chain: MAAAEVPVPSGYFTQIKEQKLKPGDLEEEKEEDGVQRVEAQEGVVKEVEAENSCLLLEARAPVESDRRILTLQTVHLESQDVHLQGLGWLSVPHSEELSGTVPEAEGILQLPSVLWLDPEPQLSLQHCVTVSIPEELYPPEELQRIHFHLLRENVLMAEENPELTPDLDESTALKKPEEDEKDQLPPQGETDKREERLLLLEMKPKEGKDDEIVLTISHLSLEEQQDPPAANQTSVPGAKAAKPKRRRQTKGKPQSFQCDTCPFTSSKLSTFNRHIKIHSNERPHLCHLCLKAFRTVTLLRNHVNTHTGTRPHKCRDCDMAFVTSGELVRHRRYKHTYEKPFKCSLCKYASVEASKMKRHIRSHTGERPFQCCQCAYASRDSYKLKRHMRTHSGEKPYECPTCHVRFTQSGTMKIHIAQKHGENVPKYECPHCATIIARKSDLRVHLRNLHSQSPEEMKCRYCPAGFHERYALIQHQRTHKNEKKFKCKQCDYACKQERCLKAHMRMHTGEKPFSCLACNKHFRQKQLLTVHLRKYHDPNFVPNLHLCLKCDKRFSRWSNLQRHRKKCDPEHETLAPNKDRRPVTRTQASEGEAGHKEGEPQCPGEQALGHQGEAAGSQSPDHGLTCEIIFNMMDK
On to B1, for which the binding result (with GST fusion histone H1; with GST fusion histone H2A; in experiment [1]) was “binds” each time.

B2: V5-tagged PRMT7 (enzyme, UniProt Q922X9 1-692)
chain: MKVFCGRANPTTGSLEWLEEDEHYDYHQEIARSSYADMLHDKDRNIKYYQGIRAAVSRVKDRGQKALVLDIGTGTGLLSMMAVTAGADFCYAIEVFKPMAEAAVKIVERNGFSDKIKVINKHSTEVTVGPDGDLPCRANILITELFDTELIGEGALPSYEHAHKHLVQEDCEAVPHRATVYAQLVESRRMWSWNKLFPVRVRTSLGEQVIVPPSELERCPGAPSVCDIQLNQVSPADFTVLSDVLPMFSVDFSKQVSSSAACHSRQFVPLASGQAQVVLSWWDIEMDPEGKIKCTMAPFWAQTDPQELQWRDHWMQCVYFLPQEEPVVQGSPRCLVAHHDDYCVWYSLQRTSPDENDSAYQVRPVCDCQAHLLWNRPRFGEINDQDRTDHYAQALRTVLLPGSVCLCVSDGSLLSMLAHHLGAEQVFTVESSVASYRLMKRIFKVNHLEDKISVINKRPELLTAADLEGKKVSLLLGEPFFTTSLLPWHNLYFWYVRTSVDQHLAPGAVVMPQAASLHAVIVEFRDLWRIRSPCGDCEGFDVHIMDDMIKHSLDFRESREAEPHPLWEYPCRSLSKPQEILTFDFQQPIPQQPMQSKGTMELTRPGKSHGAVLWMEYQLTPDSTISTGLINPAEDKGDCCWNPHCKQAVYFLSTTLDLRVPLNGPRSVSYVVEFHPLTGDITMEFRLADTLS
As for B2, the binding result with GST fusion histone H1 and in the experiment with GST fusion histone H2A was “no binding” each time.

B3: V5-tagged N-terminal CTCFL (domain or fragment, UniProt A2APF3 1-229)
chain: MAAAEVPVPSGYFTQIKEQKLKPGDLEEEKEEDGVQRVEAQEGVVKEVEAENSCLLLEARAPVESDRRILTLQTVHLESQDVHLQGLGWLSVPHSEELSGTVPEAEGILQLPSVLWLDPEPQLSLQHCVTVSIPEELYPPEELQRIHFHLLRENVLMAEENPELTPDLDESTALKKPEEDEKDQLPPQGETDKREERLLLLEMKPKEGKDDEIVLTISHLSLEEQQDPP
As to B3, the binding result with GST fusion histone H1 and with GST fusion histone H2A was “binds” each time.
